# Source: PubChem BioAssay AID1671190 (National Center for Advancing Translational Sciences (NCATS), 2021)
# Sequences of proteins named here, by UniProt entry; tags and fusion partners are left off. A change or cut given only in a name is not applied to a line headed by its entry.
# UniProt P18054: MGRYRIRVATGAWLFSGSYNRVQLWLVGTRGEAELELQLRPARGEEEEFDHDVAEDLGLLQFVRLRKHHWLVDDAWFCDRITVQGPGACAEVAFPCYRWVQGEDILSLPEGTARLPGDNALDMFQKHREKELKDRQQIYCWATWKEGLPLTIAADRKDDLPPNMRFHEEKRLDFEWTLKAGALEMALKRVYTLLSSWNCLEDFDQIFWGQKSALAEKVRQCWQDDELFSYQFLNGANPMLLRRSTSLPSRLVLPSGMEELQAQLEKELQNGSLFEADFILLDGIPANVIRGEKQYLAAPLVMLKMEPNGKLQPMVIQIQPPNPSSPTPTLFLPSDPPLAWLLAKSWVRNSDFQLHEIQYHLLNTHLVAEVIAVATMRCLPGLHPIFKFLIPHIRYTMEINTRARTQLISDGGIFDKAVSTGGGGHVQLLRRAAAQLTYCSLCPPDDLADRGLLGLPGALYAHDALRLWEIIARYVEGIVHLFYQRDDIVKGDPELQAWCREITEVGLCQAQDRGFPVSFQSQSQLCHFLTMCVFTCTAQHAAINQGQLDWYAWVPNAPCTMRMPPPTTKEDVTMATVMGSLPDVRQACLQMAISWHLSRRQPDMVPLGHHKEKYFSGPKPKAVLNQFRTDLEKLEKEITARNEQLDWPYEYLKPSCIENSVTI
# Values joined by “and” are separate entries in the source; they are usually repeats but may differ in a detail not shown here. Equal entries are not always repeated. Among all 580,000 compounds or so, about 6,100 (1.1%) were called active. The inconclusive results got no clear call from the source; some entries with a clear call stand among them for comparison. Calls come from the whole dose curve; as a rule, active = well fitted inhibition curve with a large enough effect; inconclusive = small, poorly fitted or top-dose-only effect, or another doubt; inactive = no such curve, though single readings can be large or run the other way. Potencies of inconclusive entries are doubtful fits and often do not repeat.
# Target: Polyunsaturated fatty acid lipoxygenase ALOX12 (Homo sapiens) (UniProt P18054)
# Test: Primary qHTS assay for inhibitors of human arachidonate 12S-lipoxygenase (ALOX12): Round 2
# Conditions: purified 12hLO, xylenol orange hydroperoxide absorbance; activity change, negative = inhibition: at 108 µM (top of the series) unless noted
# Summary of the method: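 Hydroperoxide product was detected by ferrous iron/xylenol orange as the 573 to 405 nm absorbance ratio. Arachidonic acid at 40 uM (final) was turned over for 30 min at room temperature by 150 nM human 12hLO, pH 7.0 Hepes buffer, after 15 min compound preincubation.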
# % is set by controls: 0 for no effect and ±100 for the full control effect; potency is the fitted concentration of half-maximal effect.
Structure (SMILES),"activity change, negative = inhibition",Potency
COC1=CC(=Cc2c(N)n3nc(CC(=O)N4CCCCC4)sc3nc2=O)C=C(OC)C1=O,inactive: -3.68%,
O=C(COc1ccc(Cl)cc1)Nc1ccc(C(=O)O)cc1NC(=O)COc1ccc(Cl)cc1,,"inconclusive: 5.01 µM [inhibitor, full curve, poor fit]"
CCCCNC(=O)c1cccc(Cl)c1,,"inconclusive: 2.24 µM [inhibitor, full curve, poor fit]"
CCCCc1cc(O)c(CCCC)c(O)c1,,"inconclusive: 50.1 µM [inhibitor, partial curve, poor fit]"
CC1(C)SC2c3ccccc3C(=O)N2[C@@H]1C(=O)NCc1ccc(Cl)cc1 (some centres not stated),,"inconclusive: 5.62 µM [inhibitor, partial curve, poor fit]"
O=C(CSc1nccc(=O)[nH]1)Nc1ccc(S(=O)(=O)N2CCOCC2)cc1,inactive: 5.35%,
Cc1nc([N+](=O)[O-])c(C(=O)OCc2cccc(Br)c2)n1C,,"inconclusive: 56.2 µM [inhibitor, partial curve, poor fit]"
COc1ccccc1NC(=O)CN(c1ccc([N+](=O)[O-])cc1)S(=O)(=O)c1ccccc1,inactive: -12.6%,
CC(C)(C)c1ccc(C2(C)NC(=O)N(CC(=O)Nc3ccc4c(c3)OCO4)C2=O)cc1 (configuration not stated),,"inconclusive: 44.7 µM [inhibitor, partial curve, poor fit]"
CCOC(=O)C1=C(COC(=O)c2cc(S(=O)(=O)N(C)C)ccc2C)NC(=O)NC1C (configuration not stated),inactive: 3.93%,
COc1ccccc1-c1cccc(-c2nc(C(=O)Nc3nccs3)cc3c2[C@H](CCO)N(C(C)=O)C3)c1,,"inconclusive: 31.6 µM [inhibitor, single point]"
Cc1ccc(NC(=O)N(C)Cc2nc(-c3ccccc3C)oc2C)cc1F,inconclusive: -43.6% [inhibitor],
c1ccc(CNC2=NCCCC2)cc1,,"inconclusive: 0.501 µM [inhibitor, full curve, poor fit]"
O=S(=O)(c1ccc(NC(=S)NN=C(Cc2ccccc2)Cc2ccccc2)cc1)N1CCOCC1,,"inconclusive: 39.8 µM [inhibitor, partial curve]"
Cc1ccc(S(=O)(=O)c2nc(/C=C/c3ccccc3)oc2N2CCC(C(N)=O)CC2)cc1,,"inconclusive: 70.8 µM [inhibitor, partial curve, poor fit]"
CNc1nnc(-c2ccco2)s1,,"inconclusive: 39.8 µM [inhibitor, single point]"
Cc1ccc(-c2nc(CSCC(=O)N3CCN(C(=O)c4ccco4)CC3)c(C)o2)cc1,,"inconclusive: 3.98 µM [inhibitor, full curve, poor fit]"
Cc1c(Cl)cccc1NC(=O)c1nc2ccccc2nc1N1CCN(C)CC1,inactive: -4.87%,
Cc1c(C(=O)N2CCN(c3ccc([N+](=O)[O-])cc3)CC2)oc2ccccc12,inactive: -13.6%,
COCCNC(=O)c1cc(S(=O)(=O)N(C)C2CCCCC2)ccc1Cl,inactive: 7.46%,
CN(c1ccccc1)S(=O)(=O)c1nnc(NC(=O)c2ccco2)s1,,"inactive and inconclusive: 100 µM [inhibitor, partial curve, poor fit]"

# Part of the list above, bar-delimited:
Structure (SMILES) | activity change, negative = inhibition | Potency
CCCCc1cc(O)c(CCCC)c(O)c1 |  | inconclusive: 50.1 µM [inhibitor, partial curve, poor fit]
COc1ccccc1NC(=O)CN(c1ccc([N+](=O)[O-])cc1)S(=O)(=O)c1ccccc1 | inactive: -12.6% | 

# More compounds

Structure (SMILES),"activity change, negative = inhibition",Potency
COc1cccc(-c2nnc(SCC(=O)OC(C)C)n2Cc2ccco2)c1,inactive: 0.66%,
O=C(CCc1ccccc1)NNC(=O)COc1ccc(Br)cc1,inactive: -1.53%,
NS(=O)(=O)c1ccc(CNC(=S)Nc2ccc(F)c(Cl)c2)cc1,,"inconclusive: 89.1 µM [inhibitor, partial curve, poor fit]"
CC(NCc1ccc(-c2ccccc2)o1)c1ccccc1 (configuration not stated),,"inconclusive: 0.891 µM [inhibitor, full curve, poor fit]"
N#CCc1ccc([N+](=O)[O-])cc1,inactive: -7.75%,
CCN(CC)S(=O)(=O)c1ccc(C(=O)NCc2ccc3c(c2)cc(C)n3C)cc1,,"inconclusive: 35.5 µM [inhibitor, partial curve, poor fit]"
CC(Sc1nnc(Nc2ccccc2)s1)C(=O)N(C)c1ccccc1 (configuration not stated),,"inconclusive: 0.199 µM [inhibitor, full curve, poor fit]"
COc1cccc(CNCC(O)COc2ccc(C(C)=O)cc2OC)c1 (configuration not stated),inactive: -77.2%,
Cc1ccc(NC(=O)c2cc(-c3cccs3)nc3ccccc23)nc1,,"inconclusive: 35.5 µM [inhibitor, full curve, poor fit]"
CC(C)/C(=N\NS(=O)(=O)c1ccc(Br)cc1)c1cccs1,,"inconclusive: 79.4 µM [inhibitor, partial curve, poor fit]"
O=C(NCc1n[nH]c(=S)n1-c1cccc(C(F)(F)F)c1)c1ccc(S(=O)(=O)N2CCCCC2)cc1,,"inconclusive: 44.7 µM [inhibitor, partial curve, poor fit]"
CC(C)[C@@H]1CN(C(=O)c2cc(N3CCCCC3)ccc2Cl)C[C@H]1N(C)C,,"inconclusive: 50.1 µM [inhibitor, partial curve]"
O=C(CC(=O)c1ccccc1F)c1ccccc1F,,"inconclusive: 0.708 µM [inhibitor, full curve, poor fit]"
CCc1nc2oc3ccccc3c(=O)c2c(=O)n1-c1ccc(C)cc1,,"inconclusive: 100 µM [inhibitor, partial curve, poor fit]"
O=C(Nc1ncn[nH]1)c1cccc(S(=O)(=O)N2CCCCC2)c1,inactive: -4.83%,
Oc1ccccc1/C=N/NC(=S)NC1CC2C=CC1C2 (configuration not stated),,"inconclusive: 112 µM [inhibitor, single point]"
Cc1ccc(S(=O)(=O)N(C)c2ccc(C(=O)N3CCCCC3)cc2)cc1,inactive: -1.44%,
CCN(CC)c1ccc(Nc2nc(-c3sc(NC(=O)c4ccccc4)nc3C)cs2)cc1,,"inconclusive: 22.4 µM [inhibitor, partial curve, poor fit]"
Cc1ccc2nc(NCc3ccccc3)[nH]c2c1,inactive: -0.592%,
Cc1ccc(NC(=O)C2CCN(c3cnc4ccccc4n3)CC2)cc1Cl,,"inconclusive: 8.91 µM [inhibitor, partial curve, poor fit]"
COCCn1c(=O)c(-c2cn(C)c3ccccc23)nc2cnc(N3CCOCC3)nc21,,"inconclusive: 2 µM [inhibitor, full curve, poor fit]"
